{"source": "ChEMBL document CHEMBL4316593", "about": "(Eur J Med Chem, 2019)", "format_in_all_cases": "cell-based", "conditions_in_all_cases": "U-87MG ATCC", "key": {"[1]": {"assay": "Inhibition of RTK/PI3K/AKT/mTOR signaling in human U87 cells assessed as down regulation of STX11 gene expression at cytotoxic IC50 measured after 48 hrs relative to control"}, "[2]": {"assay": "Inhibition of RTK/PI3K/AKT/mTOR signaling in human U87 cells assessed as down regulation of TBX3 gene expression at cytotoxic IC50 measured after 48 hrs relative to control"}, "[3]": {"assay": "Inhibition of RTK/PI3K/AKT/mTOR signaling in human U87 cells assessed as down regulation of ZNF430 gene expression at cytotoxic IC50 measured after 48 hrs relative to control"}, "[4]": {"assay": "Inhibition of RTK/PI3K/AKT/mTOR signaling in human U87 cells assessed as down regulation of RNR2 gene expression at cytotoxic IC50 measured after 48 hrs relative to control"}, "[5]": {"assay": "Inhibition of RTK/PI3K/AKT/mTOR signaling in human U87 cells assessed as down regulation of MCM8 gene expression at cytotoxic IC50 measured after 48 hrs relative to control"}, "[6]": {"assay": "Inhibition of RTK/PI3K/AKT/mTOR signaling in human U87 cells assessed as down regulation of SLC36A1 gene expression at cytotoxic IC50 measured after 48 hrs relative to control"}, "[7]": {"assay": "Inhibition of RTK/PI3K/AKT/mTOR signaling in human U87 cells assessed as down regulation of OAS3 gene expression at cytotoxic IC50 measured after 48 hrs relative to control"}, "[8]": {"assay": "Inhibition of RTK/PI3K/AKT/mTOR signaling in human U87 cells assessed as down regulation of FAM161B gene expression at cytotoxic IC50 measured after 48 hrs relative to control"}, "[9]": {"assay": "Inhibition of RTK/PI3K/AKT/mTOR signaling in human U87 cells assessed as down regulation of ATOX1 gene expression at cytotoxic IC50 measured after 48 hrs relative to control"}, "[10]": {"assay": "Inhibition of RTK/PI3K/AKT/mTOR signaling in human U87 cells assessed as down regulation of STIL gene expression at cytotoxic IC50 measured after 48 hrs relative to control"}, "[11]": {"assay": "Inhibition of RTK/PI3K/AKT/mTOR signaling in human U87 cells assessed as down regulation of RAB11FIP3 gene expression at cytotoxic IC50 measured after 48 hrs relative to control"}, "[12]": {"assay": "Inhibition of RTK/PI3K/AKT/mTOR signaling in human U87 cells assessed as down regulation of DDAH1 gene expression at cytotoxic IC50 measured after 48 hrs relative to control"}, "[13]": {"assay": "Inhibition of RTK/PI3K/AKT/mTOR signaling in human U87 cells assessed as down regulation of CMTR1 gene expression at cytotoxic IC50 measured after 48 hrs relative to control"}, "[14]": {"assay": "Inhibition of RTK/PI3K/AKT/mTOR signaling in human U87 cells assessed as down regulation of DVL3 gene expression at cytotoxic IC50 measured after 48 hrs relative to control"}, "[15]": {"assay": "Inhibition of RTK/PI3K/AKT/mTOR signaling in human U87 cells assessed as down regulation of ENTPD7 gene expression at cytotoxic IC50 measured after 48 hrs relative to control"}, "[16]": {"assay": "Inhibition of RTK/PI3K/AKT/mTOR signaling in human U87 cells assessed as down regulation of ZFAND5 gene expression at cytotoxic IC50 measured after 48 hrs relative to control"}, "[17]": {"assay": "Inhibition of RTK/PI3K/AKT/mTOR signaling in human U87 cells assessed as down regulation of CHMP2B gene expression at cytotoxic IC50 measured after 48 hrs relative to control"}, "[18]": {"assay": "Inhibition of RTK/PI3K/AKT/mTOR signaling in human U87 cells assessed as down regulation of CYB5R3 gene expression at cytotoxic IC50 measured after 48 hrs relative to control"}, "[19]": {"assay": "Inhibition of RTK/PI3K/AKT/mTOR signaling in human U87 cells assessed as up regulation of S100A14 gene expression at cytotoxic IC50 measured after 48 hrs relative to control"}, "[20]": {"assay": "Inhibition of RTK/PI3K/AKT/mTOR signaling in human U87 cells assessed as up regulation of PLEKHG2 gene expression at cytotoxic IC50 measured after 48 hrs relative to control"}, "[21]": {"assay": "Inhibition of RTK/PI3K/AKT/mTOR signaling in human U87 cells assessed as up regulation of TMEM158 gene expression at cytotoxic IC50 measured after 48 hrs relative to control"}, "[22]": {"assay": "Inhibition of RTK/PI3K/AKT/mTOR signaling in human U87 cells assessed as up regulation of ALDOC gene expression at cytotoxic IC50 measured after 48 hrs relative to control"}, "[23]": {"assay": "Inhibition of RTK/PI3K/AKT/mTOR signaling in human U87 cells assessed as up regulation of ANKRD37 gene expression at cytotoxic IC50 measured after 48 hrs relative to control"}, "[24]": {"assay": "Inhibition of RTK/PI3K/AKT/mTOR signaling in human U87 cells assessed as up regulation of laminin subunit gamma 3 gene expression at cytotoxic IC50 measured after 48 hrs relative to control"}, "[25]": {"assay": "Inhibition of RTK/PI3K/AKT/mTOR signaling in human U87 cells assessed as up regulation of protein disulfide isomerase family A member 4 gene expression at cytotoxic IC50 measured after 48 hrs relative to control"}, "[26]": {"assay": "Inhibition of RTK/PI3K/AKT/mTOR signaling in human U87 cells assessed as up regulation of troponin T1, slow skeletal type gene expression at cytotoxic IC50 measured after 48 hrs relative to control"}, "[27]": {"assay": "Inhibition of RTK/PI3K/AKT/mTOR signaling in human U87 cells assessed as up regulation of RAB11 family interacting protein 2 gene expression at cytotoxic IC50 measured after 48 hrs relative to control"}, "[28]": {"assay": "Inhibition of RTK/PI3K/AKT/mTOR signaling in human U87 cells assessed as up regulation of CDC28 protein kinase regulatory subunit 1B gene expression at cytotoxic IC50 measured after 48 hrs relative to control"}, "[29]": {"assay": "Inhibition of RTK/PI3K/AKT/mTOR signaling in human U87 cells assessed as up regulation of ubiquitin specific peptidase 3 gene expression at cytotoxic IC50 measured after 48 hrs relative to control"}, "[30]": {"assay": "Inhibition of RTK/PI3K/AKT/mTOR signaling in human U87 cells assessed as up regulation of ADGRG1 gene expression at cytotoxic IC50 measured after 48 hrs relative to control"}, "[31]": {"assay": "Inhibition of RTK/PI3K/AKT/mTOR signaling in human U87 cells assessed as up regulation of UBE2R2 gene expression at cytotoxic IC50 measured after 48 hrs relative to control"}, "[32]": {"assay": "Inhibition of RTK/PI3K/AKT/mTOR signaling in human U87 cells assessed as up regulation of C1orf43 gene expression at cytotoxic IC50 measured after 48 hrs relative to control"}}, "note": "The source gives many values for each of these; only a part stands here."}
{"molecule": "CC(=O)C(=NNc1ccccc1C#N)C(C)=O", "values": [{"measurement": "log2FC", "setting": "[1]", "result": -3.46}, {"measurement": "log2FC", "setting": "[2]", "result": -2.35}, {"measurement": "log2FC", "setting": "[3]", "result": -1.97}, {"measurement": "log2FC", "setting": "[4]", "result": -1.47}, {"measurement": "log2FC", "setting": "[5]", "result": -1.3}, {"measurement": "log2FC", "setting": "[6]", "result": -1.26}, {"measurement": "log2FC", "setting": "[7]", "result": -1.25}, {"measurement": "log2FC", "setting": "[8]", "result": -1.15}, {"measurement": "log2FC", "setting": "[9]", "result": -1.07}, {"measurement": "log2FC", "setting": "[10]", "result": -0.963}, {"measurement": "log2FC", "setting": "[11]", "result": -0.94}, {"measurement": "log2FC", "setting": "[12]", "result": -0.934}, {"measurement": "log2FC", "setting": "[13]", "result": -0.889}, {"measurement": "log2FC", "setting": "[14]", "result": -0.884}, {"measurement": "log2FC", "setting": "[15]", "result": -0.854}, {"measurement": "log2FC", "setting": "[16]", "result": -0.513}, {"measurement": "log2FC", "setting": "[17]", "result": -0.503}, {"measurement": "log2FC", "setting": "[18]", "result": -0.466}, {"measurement": "log2FC", "setting": "[19]", "result": 3.24}, {"measurement": "log2FC", "setting": "[20]", "result": 2.26}, {"measurement": "log2FC", "setting": "[21]", "result": 2.2}, {"measurement": "log2FC", "setting": "[22]", "result": 2.19}, {"measurement": "log2FC", "setting": "[23]", "result": 1.7}, {"measurement": "log2FC", "setting": "[24]", "result": 1.36}, {"measurement": "log2FC", "setting": "[25]", "result": 1.29}, {"measurement": "log2FC", "setting": "[26]", "result": 1.17}, {"measurement": "log2FC", "setting": "[27]", "result": 0.76}, {"measurement": "log2FC", "setting": "[28]", "result": 0.756}, {"measurement": "log2FC", "setting": "[29]", "result": 0.679}, {"measurement": "log2FC", "setting": "[30]", "result": 0.579}, {"measurement": "log2FC", "setting": "[31]", "result": 0.487}, {"measurement": "log2FC", "setting": "[32]", "result": 0.389}]}
